Measured values from the supplement of paper PMC7411640.
Structures can show the parent of a compound that is named as a salt. The list shows a part of the results. Repeats in this data set agree poorly, so a single value says little.

Tested on: MDA-MB-468
Test: phospho-S6 immunofluorescence (DAPI-normalised), per-plate z-score; higher = higher phospho-S6 signal (less pathway suppression)
Details: 24 h
Description: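 GPCR-targeted compound library (MedChemExpress HY-L006) tested on MDA-MB-468 PTEN-null TNBC cells in 384-well plates at 0.1, 1 or 10 uM, combined with vehicle, GDC0941 450 nM or lapatinib 1 uM, for 24 h. Phospho-S6 (S240/244) immunofluorescence normalised to DAPI and expressed as a per-plate z-score; values are the mean of biological triplicates.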

[1] = compound 0.1 µM, co-treatment: GDC0941 450 nM
[2] = compound 0.1 µM, co-treatment: lapatinib 1 uM
[3] = compound 0.1 µM, co-treatment: vehicle
[4] = compound 1 µM, co-treatment: GDC0941 450 nM
[5] = compound 1 µM, co-treatment: lapatinib 1 uM
[6] = compound 1 µM, co-treatment: vehicle
[7] = compound 10 µM, co-treatment: GDC0941 450 nM
[8] = compound 10 µM, co-treatment: lapatinib 1 uM
[9] = compound 10 µM, co-treatment: vehicle

SMILES	phospho-S6 immunofluorescence (z-score) [1]	phospho-S6 immunofluorescence (z-score) [2]	phospho-S6 immunofluorescence (z-score) [3]	phospho-S6 immunofluorescence (z-score) [4]	phospho-S6 immunofluorescence (z-score) [5]	phospho-S6 immunofluorescence (z-score) [6]	phospho-S6 immunofluorescence (z-score) [7]	phospho-S6 immunofluorescence (z-score) [8]	phospho-S6 immunofluorescence (z-score) [9]
CC(C)C(=O)OCC(=O)[C@@]12O[C@H](C3CCCCC3)O[C@@H]1C[C@H]1[C@@H]3CCC4=CC(=O)C=C[C@]4(C)[C@H]3[C@@H](O)C[C@@]12C [Ciclesonide]	-0.76	-0.33	-0.43	-0.19	-2.8	-0.52	-3.85	0	-1.25
CN1CCc2c(c3ccccc3n2Cc2ccccc2)C1 [Mebhydrolin (napadisylate)]	0.08	0.71	0.16	0.78	0.36	0.09	-0.29	-1.06	0.64
COc1cc(C(C)=O)ccc1OCCCN1CCC(c2noc3cc(F)ccc23)CC1 [Iloperidone]	1.24	-0.23	-0.07	-0.48	0.27	-0.7	0.52	-0.23	0.38
Cc1cc2c(cc1Cl)N(C(=O)Nc1ccc(Oc3cccnc3C)nc1)CC2	-0.28	-1.35	0.37	-0.48	-3.04	0.09	-3.98	-5.09	-1.44
OC(CCN1CCCCC1)(c1ccccc1)C1CCCCC1 (stereo not given) [Trihexyphenidyl (hydrochloride)]	2.07	0.66	0.44	-1.23	-0.67	0.27	-0.3	-0.52	0.56
CN1CCC(=C2c3ccccc3CCc3cccnc32)CC1 [Azatadine (dimaleate)]	0.09	0.78	-0.03	0.94	0.26	0.67	0	0.29	-0.32
CCNC(=O)[C@@H]1CCCN1C(=O)[C@H](CCCNC(=N)N)NC(=O)[C@H](CC(C)C)NC(=O)[C@@H](COC(C)(C)C)NC(=O)[C@H](Cc1ccc(O)cc1)NC(=O)[C@H](CO)NC(=O)[C@H](Cc1c[nH]c2ccccc12)NC(=O)[C@H](Cc1cnc[nH]1)NC(=O)[C@@H]1CCC(=O)N1 [Buserelin (Acetate)]	-0.16	0.92	-0.12	0.77	0.04	-0.08	0.78	0.63	0.53
COc1cc(NC(=O)CCN2CCC(OC(=O)Nc3ccccc3-c3ccccc3)CC2)c(Cl)cc1CNC[C@H](O)c1ccc(O)c2[nH]c(=O)ccc12 [Batefenterol]	0.62	2.79	1.29	-0.34	0.99	1.74	-3.26	-4.13	0.38
O=C(O)CCCN1CCC(O[C@@H](c2ccc(Cl)cc2)c2ccccn2)CC1 [Bepotastine (Beslilate)]	-1.04	0.33	0.13	-0.66	-0.61	0	-0.72	-0.17	0.56
CCCN(CCc1cccs1)C1CCc2c(O)cccc2C1 (racemic) [rac-Rotigotine (Hydrochloride)]	-0.31	-0.27	-0.14	-0.44	-0.4	0.41	-0.62	0.67	-0.11
Cc1ccc(C)c(OCCn2cc(C(=O)O)c3ccccc32)c1	-0.38	-0.88	-0.56	-0.7	0.35	-1.72	0.61	-0.34	-0.21
CN1CCN(C2=Nc3cc(Cl)ccc3Nc3ccccc32)CC1 [Clozapine]	-0.36	0.37	-1.8	-1.18	0.54	-2.56	-0.16	-0.32	-0.32
CCOC(=O)N1CCC(=C2c3ccc(Cl)cc3CCc3cccnc32)CC1 [Loratadine]	0.15	-0.51	-0.69	-0.55	-1.3	-1.35	-1.77	-0.82	-1.25
CCCN[C@@H]1CCc2nc(N)sc2C1 [Dexpramipexole (dihydrochloride)]	-0.08	-0.67	-0.41	0.83	0.96	0.64	1.16	0.15	0.4
COc1cc(C(=O)NCc2ccc(OCCN(C)C)cc2)cc(OC)c1OC [Trimethobenzamide hydrochloride]	0.07	-0.16	-0.46	0.13	-0.34	0.09	0.29	1.09	0.51
C[C@]12CCC(=O)C=C1CC[C@@H]1[C@@H]2C(=O)C[C@@]2(C)[C@H]1CC[C@]2(O)C(=O)CO [Cortisone]	-0.15	0.88	1.52	0.51	0.56	1.15	0.47	0.58	1.14
COc1ccc(CNC(=O)c2cc(-c3cncc(C)c3)ncc2-c2nccs2)nc1OC	-0.38	-0.18	0.2	-0.6	0.31	-0.04	-0.61	-0.5	0.26
CN1CCc2cc(Cl)c(O)cc2[C@@H](c2ccccc2)C1	-0.08	0.55	0.46	0.12	-0.31	0.11	-0.98	-1.63	0.1
CC1OC2(CS1)CN1CCC2CC1 (stereo not given) [Cevimeline (hydrochloride hemihydrate)]	1.34	0.13	0.98	1.21	0.77	0.79	0.65	-0.04	0.89
C[C@@H](OC[C@@]1(c2ccccc2)CC[C@]2(CCC(=O)N2)CN1)c1cc(C(F)(F)F)cc(C(F)(F)F)c1 [Rolapitant]	-0.47	0.29	0.77	-0.34	-0.81	1.04	-4.35	-3.8	-0.65

A draw from above in order of molar mass, low to high:
SMILES	phospho-S6 immunofluorescence (z-score) [1]	phospho-S6 immunofluorescence (z-score) [2]	phospho-S6 immunofluorescence (z-score) [3]	phospho-S6 immunofluorescence (z-score) [4]	phospho-S6 immunofluorescence (z-score) [5]	phospho-S6 immunofluorescence (z-score) [6]	phospho-S6 immunofluorescence (z-score) [7]	phospho-S6 immunofluorescence (z-score) [8]	phospho-S6 immunofluorescence (z-score) [9]
Cc1ccc(C)c(OCCn2cc(C(=O)O)c3ccccc32)c1	-0.38	-0.88	-0.56	-0.7	0.35	-1.72	0.61	-0.34	-0.21
CCOC(=O)N1CCC(=C2c3ccc(Cl)cc3CCc3cccnc32)CC1 [Loratadine]	0.15	-0.51	-0.69	-0.55	-1.3	-1.35	-1.77	-0.82	-1.25
COc1cc(C(=O)NCc2ccc(OCCN(C)C)cc2)cc(OC)c1OC [Trimethobenzamide hydrochloride]	0.07	-0.16	-0.46	0.13	-0.34	0.09	0.29	1.09	0.51
